According to PMC7005868:
These are yes or no findings as the source states them, for the method shown. In cells and extracts the contact can be indirect. Some results given as binding are weak or reduced against the parent protein; the word gives no strength. For some of these results: Sequences can lack the tags named with a protein.

Chains of the proteins cited; added tags and fusions are not shown. Lines headed by an entry give the natural chain unless they say otherwise; changes in a name come on top. A line that says so, or that is headed by a name, gives the form on record, which may keep a tag or linker. Residues count along the entry.
CD63-GLucC (CD63 truncated at Val206 fused to the C-terminal fragment of Gaussia luciferase) (P08962, residues 1-206): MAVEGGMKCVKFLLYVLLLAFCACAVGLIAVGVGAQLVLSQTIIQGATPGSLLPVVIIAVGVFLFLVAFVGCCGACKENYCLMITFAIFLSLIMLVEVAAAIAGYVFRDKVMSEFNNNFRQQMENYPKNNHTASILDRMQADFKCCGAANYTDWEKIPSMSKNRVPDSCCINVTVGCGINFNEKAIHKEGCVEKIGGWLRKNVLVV
CD63-GLucC IIQ (I43-Q45 of the small extracellular loop substituted for alanine) (P08962, form named): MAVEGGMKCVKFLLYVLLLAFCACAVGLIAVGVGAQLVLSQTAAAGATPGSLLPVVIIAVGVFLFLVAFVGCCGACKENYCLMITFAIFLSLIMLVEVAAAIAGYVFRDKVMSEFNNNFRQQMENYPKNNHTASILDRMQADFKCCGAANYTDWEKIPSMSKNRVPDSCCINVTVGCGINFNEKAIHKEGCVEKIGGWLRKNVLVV
CD63-GLucC 7AA (Q36-T42 of the small extracellular loop substituted for alanine) (P08962, form named): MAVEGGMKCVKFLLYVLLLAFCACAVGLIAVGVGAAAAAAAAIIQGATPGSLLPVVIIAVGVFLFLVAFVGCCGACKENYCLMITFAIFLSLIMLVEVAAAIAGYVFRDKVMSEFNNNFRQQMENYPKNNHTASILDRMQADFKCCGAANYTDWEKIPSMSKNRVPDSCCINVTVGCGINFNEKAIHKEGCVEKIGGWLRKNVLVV
CD63-GLucC TPGS (T48-S51 of the small extracellular loop substituted for alanine) (P08962, form named): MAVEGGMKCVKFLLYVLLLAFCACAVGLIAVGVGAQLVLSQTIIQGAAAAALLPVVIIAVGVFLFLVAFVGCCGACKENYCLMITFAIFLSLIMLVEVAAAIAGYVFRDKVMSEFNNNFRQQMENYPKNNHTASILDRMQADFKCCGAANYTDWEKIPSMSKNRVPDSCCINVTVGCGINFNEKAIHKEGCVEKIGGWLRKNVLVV
UniProt P01033, residues 24-207: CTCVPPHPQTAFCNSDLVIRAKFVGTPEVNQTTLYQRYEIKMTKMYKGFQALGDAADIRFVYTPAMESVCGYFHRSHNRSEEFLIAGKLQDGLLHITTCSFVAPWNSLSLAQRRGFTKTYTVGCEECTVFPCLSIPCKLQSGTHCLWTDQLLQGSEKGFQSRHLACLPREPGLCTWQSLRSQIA

Experiments:
[1] = target: CD63-GLucC (CD63 truncated at Val206 fused to the C-terminal fragment of Gaussia luciferase) (UniProt P08962); test: split reporter; Gaussia luciferase protein complementation assay (PCA) in live HEK293FT cells, no freeze-thaw; coelenterazine added to the live cell culture; also with or without anti-TIMP-1 antibodies
[2] = target: T1, hepatocyte nuclear factor 4α (HNF4), as GLucN-HNF4 and as HNF4-GLucC (UniProt P41235); test: split reporter; Gaussia luciferase protein complementation assay (PCA); GLucN and GLucC fusion plasmids co-transfected 1:1 into HEK293FT; membranes disrupted by two freeze-thaw cycles; luminescence with 10 uM coelenterazine
T1 sequence: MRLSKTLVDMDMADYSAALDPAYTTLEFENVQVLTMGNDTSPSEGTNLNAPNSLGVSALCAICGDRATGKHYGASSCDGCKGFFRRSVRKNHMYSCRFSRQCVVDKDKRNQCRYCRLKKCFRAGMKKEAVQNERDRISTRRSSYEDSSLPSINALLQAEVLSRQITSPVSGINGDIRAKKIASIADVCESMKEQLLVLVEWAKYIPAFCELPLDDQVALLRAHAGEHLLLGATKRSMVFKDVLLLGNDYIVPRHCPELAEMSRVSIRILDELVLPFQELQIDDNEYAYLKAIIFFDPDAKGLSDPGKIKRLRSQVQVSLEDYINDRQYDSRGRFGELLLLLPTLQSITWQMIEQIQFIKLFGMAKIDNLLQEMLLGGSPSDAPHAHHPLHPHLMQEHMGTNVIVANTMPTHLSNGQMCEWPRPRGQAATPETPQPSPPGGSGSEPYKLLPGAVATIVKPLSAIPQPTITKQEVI

[3] = target: CD63-GLucC (CD63 truncated at Val206 fused to the C-terminal fragment of Gaussia luciferase) (UniProt P08962); test: as above
[4] = target: CD63-GLucC IIQ (I43-Q45 of the small extracellular loop substituted for alanine) (UniProt P08962); test: as above
[5] = target: CD63-GLucC 7AA (Q36-T42 of the small extracellular loop substituted for alanine) (UniProt P08962); test: as above
[6] = target: CD63-GLucC TPGS (T48-S51 of the small extracellular loop substituted for alanine) (UniProt P08962); test: as above

GLucN-TIMP-1 (tissue inhibitor of metalloproteinases-1 fused to the N-terminal fragment of Gaussia luciferase) (from UniProt P01033 24-207)
binding [1]: binds
binding [2]: no binding
binding [3]: binds
binding [4]: binds
binding [5]: binds
binding [6]: binds

B1: hepatocyte nuclear factor 4α (HNF4), as GLucN-HNF4 and as HNF4-GLucC (protein, UniProt P41235 1-474)
chain: MRLSKTLVDMDMADYSAALDPAYTTLEFENVQVLTMGNDTSPSEGTNLNAPNSLGVSALCAICGDRATGKHYGASSCDGCKGFFRRSVRKNHMYSCRFSRQCVVDKDKRNQCRYCRLKKCFRAGMKKEAVQNERDRISTRRSSYEDSSLPSINALLQAEVLSRQITSPVSGINGDIRAKKIASIADVCESMKEQLLVLVEWAKYIPAFCELPLDDQVALLRAHAGEHLLLGATKRSMVFKDVLLLGNDYIVPRHCPELAEMSRVSIRILDELVLPFQELQIDDNEYAYLKAIIFFDPDAKGLSDPGKIKRLRSQVQVSLEDYINDRQYDSRGRFGELLLLLPTLQSITWQMIEQIQFIKLFGMAKIDNLLQEMLLGGSPSDAPHAHHPLHPHLMQEHMGTNVIVANTMPTHLSNGQMCEWPRPRGQAATPETPQPSPPGGSGSEPYKLLPGAVATIVKPLSAIPQPTITKQEVI
binding [3]: no binding
